The record followed here is article PMC9912985.

Chains of the proteins cited; added tags and fusions are not shown.
UniProt P31414: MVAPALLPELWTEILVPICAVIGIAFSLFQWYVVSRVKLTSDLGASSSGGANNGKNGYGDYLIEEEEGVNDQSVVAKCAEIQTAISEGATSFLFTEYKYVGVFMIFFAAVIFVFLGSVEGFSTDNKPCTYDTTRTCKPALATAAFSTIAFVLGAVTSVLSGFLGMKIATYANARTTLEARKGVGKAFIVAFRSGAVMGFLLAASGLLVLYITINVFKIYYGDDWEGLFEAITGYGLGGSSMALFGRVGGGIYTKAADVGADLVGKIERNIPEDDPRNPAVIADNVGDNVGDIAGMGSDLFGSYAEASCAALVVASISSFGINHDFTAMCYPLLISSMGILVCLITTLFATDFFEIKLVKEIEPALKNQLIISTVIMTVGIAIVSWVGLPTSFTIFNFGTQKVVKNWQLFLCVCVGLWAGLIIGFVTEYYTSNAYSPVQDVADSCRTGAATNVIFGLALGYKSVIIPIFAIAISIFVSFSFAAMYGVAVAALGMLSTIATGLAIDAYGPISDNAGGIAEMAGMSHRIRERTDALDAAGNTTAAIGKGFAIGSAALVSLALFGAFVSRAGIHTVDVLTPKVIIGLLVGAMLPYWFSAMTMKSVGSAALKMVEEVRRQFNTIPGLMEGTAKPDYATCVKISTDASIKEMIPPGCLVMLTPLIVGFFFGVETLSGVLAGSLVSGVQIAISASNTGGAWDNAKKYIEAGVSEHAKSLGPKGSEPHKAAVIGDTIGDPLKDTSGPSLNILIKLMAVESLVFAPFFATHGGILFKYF

These are yes or no findings as the source states them, for the method shown. For some assays here: Binding seen in cells or lysates may run through a third protein. Some entries that bind do so weakly or less than the wild type. For some assays here: Where a sequence is shown, tags or fusion partners need not be part of it.

Assay [1] concerns the target Arabidopsis thaliana H+-pyrophosphatase AtAVP1, bait in pBT3-STE (Arabidopsis thaliana) (UniProt P31414). In words: two-hybrid; split-ubiquitin system: bait pBT3-STE : AtAVP1 and prey pPR3N:AtRLK co-transformed into NMY51 yeast; growth on SD/-Leu-Trp-His-Ade, 30 °C, 3-4 d, dilutions 1x to 1000x.
For assay [2], the target named is nLUC-AtAVP1 (Arabidopsis thaliana) (UniProt P31414). In words: split reporter; luciferase complementary imaging (LCI): nLUC-AtAVP1 and cLUC-AtRLK co-infiltrated by Agrobacterium into tobacco leaves, luminescence read after 48 h.

B1: Arabidopsis thaliana receptor-like protein kinase AtRLK, prey in pPR3N (receptor, UniProt O65238 27-872)
chain: IEFVYPNFTASNLRFVDSSKGAFLLSRNSIFKAGLFSPGGDDSSTGFYFSVVHVDSGSTIWSSNRDSPVSSSGTMNLTPQGISVIEDGKSQIPVWSTPVLASPVKSLRLTDAGNLLLLDHLNVSLWESFDFPTDSIVLGQRLKLGMFLSGSVSRSDFSTGDYKFLVGESDGLMQWRGQNYWKLRMHIRANVDSNFPVEYLTVTTSGLALMARNGTVVVVRVALPPSSDFRVAKMDSSGKFIVSRFSGKNLVTEFSGPMDSCQIPFVCGKLGLCNLDNASENQSCSCPDEMRMDAGKGVCVPVSQSLSLPVSCEARNISYLELGLGVSYFSTHFTDPVEHGLPLLACHDICSKNCSCLGVFYENTSRSCYLVKDSFGSLSLVKNSPENHDLIGYVKLSIRKTNAQPPGNNNRGGSSFPVIALVLLPCSGFFLLIALGLLWWRRCAVMRYSSIREKQVTRPGSFESGDLGSFHIPGLPQKFEFEELEQATENFKMQIGSGGFGSVYKGTLPDETLIAVKKITNHGLHGRQEFCTEIAIIGNIRHTNLVKLRGFCARGRQLLLVYEYMNHGSLEKTLFSGNGPVLEWQERFDIALGTARGLAYLHSGCDQKIIHCDVKPENILLHDHFQPKISDFGLSKLLNQEESSLFTTMRGTRGYLAPEWITNAAISEKADVYSYGMVLLELVSGRKNCSFRSRSNSVTEDNNQNHSSTTTTSTGLVYFPLYALDMHEQGRYMELADPRLEGRVTSQEAEKLVRIALCCVHEEPALRPTMAAVVGMFEGSIPLGNPRMESLNFLRFYGLRFAESSMVEGQNGESETMVFHRRESSNSGGSRQSASYIASQEVSGPR
As for B1, the binding result in assay [1] was “binds”.

B2: cLUC-AtRLK (receptor, UniProt O65238 27-872)
chain: B1 chain
With B2, in assay [2], the binding entry is listed as “binds”.
